The source of these data is article PMC5855799.

By UniProt entry, the sequences of proteins in these tests, tags left out. Residues count along the entry.
UniProt P05787: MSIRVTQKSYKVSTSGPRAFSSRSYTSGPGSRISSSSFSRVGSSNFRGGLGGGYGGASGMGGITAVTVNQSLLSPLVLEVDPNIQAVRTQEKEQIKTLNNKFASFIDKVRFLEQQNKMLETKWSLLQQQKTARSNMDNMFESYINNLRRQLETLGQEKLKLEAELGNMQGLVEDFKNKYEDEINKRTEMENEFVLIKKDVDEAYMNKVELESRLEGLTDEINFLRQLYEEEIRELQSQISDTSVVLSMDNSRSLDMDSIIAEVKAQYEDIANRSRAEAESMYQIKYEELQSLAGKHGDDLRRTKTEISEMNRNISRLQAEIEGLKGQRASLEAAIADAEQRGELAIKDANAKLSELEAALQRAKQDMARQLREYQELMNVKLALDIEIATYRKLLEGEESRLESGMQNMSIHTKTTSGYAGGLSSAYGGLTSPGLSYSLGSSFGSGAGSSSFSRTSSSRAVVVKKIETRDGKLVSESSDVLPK
UniProt P02751, residues 32-2477: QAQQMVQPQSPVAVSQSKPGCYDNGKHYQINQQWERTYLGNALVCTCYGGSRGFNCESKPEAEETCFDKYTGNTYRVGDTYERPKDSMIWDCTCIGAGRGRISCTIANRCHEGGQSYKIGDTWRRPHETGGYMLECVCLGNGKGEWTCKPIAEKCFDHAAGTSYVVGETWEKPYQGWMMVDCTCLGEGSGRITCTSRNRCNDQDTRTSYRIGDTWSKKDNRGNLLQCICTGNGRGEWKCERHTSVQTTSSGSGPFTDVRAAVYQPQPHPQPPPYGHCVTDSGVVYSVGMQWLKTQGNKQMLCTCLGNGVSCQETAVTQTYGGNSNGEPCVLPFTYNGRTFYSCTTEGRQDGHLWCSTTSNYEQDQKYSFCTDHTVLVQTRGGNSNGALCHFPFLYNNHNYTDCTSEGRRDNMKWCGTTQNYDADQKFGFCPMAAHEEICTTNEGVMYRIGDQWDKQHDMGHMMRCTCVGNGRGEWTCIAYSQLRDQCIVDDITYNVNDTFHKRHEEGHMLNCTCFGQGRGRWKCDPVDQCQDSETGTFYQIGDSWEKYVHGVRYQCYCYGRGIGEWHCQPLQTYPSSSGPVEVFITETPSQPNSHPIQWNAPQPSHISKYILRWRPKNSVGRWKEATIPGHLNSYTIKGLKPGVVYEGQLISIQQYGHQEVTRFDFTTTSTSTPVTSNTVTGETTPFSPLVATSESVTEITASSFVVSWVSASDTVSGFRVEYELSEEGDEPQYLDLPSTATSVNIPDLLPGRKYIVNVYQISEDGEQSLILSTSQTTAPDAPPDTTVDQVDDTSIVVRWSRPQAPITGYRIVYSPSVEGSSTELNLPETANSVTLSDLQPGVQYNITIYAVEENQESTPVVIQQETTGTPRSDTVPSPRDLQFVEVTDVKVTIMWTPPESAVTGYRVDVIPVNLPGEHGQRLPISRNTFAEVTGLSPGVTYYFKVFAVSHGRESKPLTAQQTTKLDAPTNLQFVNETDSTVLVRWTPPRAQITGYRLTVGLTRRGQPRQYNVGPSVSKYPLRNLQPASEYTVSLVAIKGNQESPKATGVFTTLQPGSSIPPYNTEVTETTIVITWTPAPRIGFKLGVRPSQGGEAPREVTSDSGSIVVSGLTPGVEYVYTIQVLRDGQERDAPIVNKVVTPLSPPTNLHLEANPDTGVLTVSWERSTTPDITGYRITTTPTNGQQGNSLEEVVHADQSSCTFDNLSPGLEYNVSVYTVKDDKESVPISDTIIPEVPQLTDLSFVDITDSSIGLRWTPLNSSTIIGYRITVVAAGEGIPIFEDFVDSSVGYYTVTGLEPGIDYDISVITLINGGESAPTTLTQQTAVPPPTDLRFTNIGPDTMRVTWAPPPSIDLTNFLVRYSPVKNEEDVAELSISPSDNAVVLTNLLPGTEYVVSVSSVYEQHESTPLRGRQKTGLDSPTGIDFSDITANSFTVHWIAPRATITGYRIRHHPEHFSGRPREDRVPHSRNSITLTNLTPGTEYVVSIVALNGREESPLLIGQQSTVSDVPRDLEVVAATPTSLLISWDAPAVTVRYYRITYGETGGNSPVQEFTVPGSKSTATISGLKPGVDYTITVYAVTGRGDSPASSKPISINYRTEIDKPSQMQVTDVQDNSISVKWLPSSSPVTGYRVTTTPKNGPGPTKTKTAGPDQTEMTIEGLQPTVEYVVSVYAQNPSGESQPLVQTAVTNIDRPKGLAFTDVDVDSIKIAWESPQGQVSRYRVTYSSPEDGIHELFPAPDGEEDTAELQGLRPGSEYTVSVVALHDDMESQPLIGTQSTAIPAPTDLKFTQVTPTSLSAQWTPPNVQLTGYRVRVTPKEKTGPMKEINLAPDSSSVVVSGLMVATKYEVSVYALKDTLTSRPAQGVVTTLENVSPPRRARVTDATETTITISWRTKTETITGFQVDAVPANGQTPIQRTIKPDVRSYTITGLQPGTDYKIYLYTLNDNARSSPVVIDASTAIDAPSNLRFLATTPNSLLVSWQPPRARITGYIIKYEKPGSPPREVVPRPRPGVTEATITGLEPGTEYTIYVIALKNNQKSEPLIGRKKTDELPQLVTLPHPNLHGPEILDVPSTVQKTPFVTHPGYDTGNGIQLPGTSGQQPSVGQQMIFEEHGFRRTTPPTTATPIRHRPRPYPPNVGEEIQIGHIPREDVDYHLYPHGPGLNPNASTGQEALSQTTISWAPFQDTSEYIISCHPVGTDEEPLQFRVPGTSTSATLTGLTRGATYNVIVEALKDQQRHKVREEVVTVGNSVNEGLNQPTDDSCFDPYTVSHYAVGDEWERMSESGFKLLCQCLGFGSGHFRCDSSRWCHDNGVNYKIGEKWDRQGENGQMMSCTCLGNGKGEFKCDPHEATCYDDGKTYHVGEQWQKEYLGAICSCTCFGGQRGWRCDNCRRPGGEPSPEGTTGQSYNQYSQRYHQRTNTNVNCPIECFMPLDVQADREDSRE
UniProt O60437: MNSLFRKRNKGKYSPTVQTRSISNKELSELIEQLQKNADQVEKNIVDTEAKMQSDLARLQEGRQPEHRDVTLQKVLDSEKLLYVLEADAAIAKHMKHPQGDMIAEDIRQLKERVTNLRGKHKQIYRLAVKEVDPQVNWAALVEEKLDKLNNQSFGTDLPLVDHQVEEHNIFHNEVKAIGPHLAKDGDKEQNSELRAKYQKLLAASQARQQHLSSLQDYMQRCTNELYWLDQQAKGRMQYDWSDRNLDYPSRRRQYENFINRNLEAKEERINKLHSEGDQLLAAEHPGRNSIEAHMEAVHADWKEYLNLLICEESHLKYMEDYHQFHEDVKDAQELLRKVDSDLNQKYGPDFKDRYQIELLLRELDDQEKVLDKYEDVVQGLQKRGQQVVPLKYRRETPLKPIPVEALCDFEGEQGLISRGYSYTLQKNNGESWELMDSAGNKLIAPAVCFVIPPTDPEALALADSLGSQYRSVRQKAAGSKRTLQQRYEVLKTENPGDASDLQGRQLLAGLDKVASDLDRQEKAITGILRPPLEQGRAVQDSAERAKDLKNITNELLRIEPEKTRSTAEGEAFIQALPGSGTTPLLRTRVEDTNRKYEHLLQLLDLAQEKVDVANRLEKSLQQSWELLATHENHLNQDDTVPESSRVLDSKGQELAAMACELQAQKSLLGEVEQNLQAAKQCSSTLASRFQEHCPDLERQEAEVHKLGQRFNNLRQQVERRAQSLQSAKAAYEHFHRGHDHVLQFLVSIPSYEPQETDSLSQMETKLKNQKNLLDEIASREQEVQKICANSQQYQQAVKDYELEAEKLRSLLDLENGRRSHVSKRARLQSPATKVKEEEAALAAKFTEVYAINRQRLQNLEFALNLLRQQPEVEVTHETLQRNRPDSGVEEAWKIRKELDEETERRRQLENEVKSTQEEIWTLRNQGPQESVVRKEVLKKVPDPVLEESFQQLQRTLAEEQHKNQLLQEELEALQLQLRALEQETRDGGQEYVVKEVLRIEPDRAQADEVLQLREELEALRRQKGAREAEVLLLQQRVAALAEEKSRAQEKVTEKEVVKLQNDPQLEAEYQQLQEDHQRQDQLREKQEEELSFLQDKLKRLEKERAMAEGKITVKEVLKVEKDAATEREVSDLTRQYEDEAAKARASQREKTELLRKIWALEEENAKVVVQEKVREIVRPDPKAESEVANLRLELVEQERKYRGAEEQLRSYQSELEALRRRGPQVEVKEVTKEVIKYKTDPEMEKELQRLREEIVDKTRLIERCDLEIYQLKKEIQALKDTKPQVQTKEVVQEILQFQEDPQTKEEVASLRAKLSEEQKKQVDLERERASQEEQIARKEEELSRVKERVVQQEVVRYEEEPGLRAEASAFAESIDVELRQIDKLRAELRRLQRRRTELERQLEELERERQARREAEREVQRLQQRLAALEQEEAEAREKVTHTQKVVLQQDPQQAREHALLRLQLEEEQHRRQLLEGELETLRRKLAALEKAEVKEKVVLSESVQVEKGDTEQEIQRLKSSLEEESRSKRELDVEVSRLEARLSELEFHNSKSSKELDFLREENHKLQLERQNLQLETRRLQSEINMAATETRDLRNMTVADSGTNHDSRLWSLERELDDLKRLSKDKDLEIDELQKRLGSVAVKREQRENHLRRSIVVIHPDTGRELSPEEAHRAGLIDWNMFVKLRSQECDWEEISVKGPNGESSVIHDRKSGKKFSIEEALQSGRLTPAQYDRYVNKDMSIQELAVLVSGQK

No constants are given. Whether binding was seen depends on the method and setting. In cells and extracts the contact can be indirect. Here binding means that the protein was enriched with, or labelled near, the bait; the list need not be complete.

The target in this experiment is Keratin-8 (human (endogenous in ACT1)) (UniProt P05787). The experiment is described as follows: affinity purification with mass spectrometry; ACT1 whole-cell lysate probed with anti-KRT8 antibody covalently bonded to magnetic beads; eluate separated by PAGE, in-gel tryptic digestion, HPLC/tandem mass spectrometry.

For “fibronectin (from UniProt P02751 32-2477)”, the binding result is reported as “binds”.

Take periplakin (from UniProt O60437 1-1756): the binding result is given as “binds”.
